Assay results reported in PubChem BioAssay AID504834 (National Center for Advancing Translational Sciences (NCATS), 2011).
The campaign covered roughly 320,000 compounds. About 22,000 (6.9%) were called active. The shares of active, inactive and inconclusive entries below differ from those in the screen. The call rests on the fitted dose curve; in most records, active means well fitted inhibition curve with a large enough effect; inconclusive means small, poorly fitted or top-dose-only effect, or another doubt; inactive means no such curve, though single readings can be large or run the other way. Potencies of inconclusive entries are doubtful fits and often do not repeat.

Assay: Primary qHTS for delayed death inhibitors of the malarial parasite plastid, 96 hour incubation
Conditions: P. falciparum luciferase reporter growth; series mostly up to 28.7 µM
Summary of the method: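 Readout is luminescence from an integrated firefly luciferase in P. falciparum. Red cells, 2% hematocrit and 0.05% parasitemia final, were cultured with compound through two parasite generations (96 hours) at 37 C, 5% CO2.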
Potency means the concentration at half of the fitted maximal effect.

Compound	Potency
O=C(N/N=C/c1c[nH]c2ccccc12)c1ccc(Br)cc1	inconclusive: 0.0037 µM [inhibitor, full curve, poor fit]
O=C(Nc1ccc(-c2nc3ccccc3c(=O)o2)cc1)c1ccco1	inactive
COc1ccccc1C/C(N)=N/OC(=O)c1ccco1	inactive
COc1ccc(OC)c(C2CC(=O)N3CN(c4ccccc4F)CSC3=C2C#N)c1 (configuration not stated)	inconclusive: 13.1 µM [inhibitor, single point]
O=C1c2ccccc2-c2cccnc21	inactive
Cc1ccc(C(=O)CCc2ccc(N)cc2)cc1	inactive
COc1cc2cc(CCCOC(=O)CCCC(=O)O)oc(=O)c2cc1OC	inconclusive: 2.33 µM [inhibitor, partial curve, poor fit]
Clc1ccc(C2CC(c3cccs3)n3ncnc3N2)cc1Cl (configuration not stated)	inconclusive: 18.5 µM [inhibitor, single point]
Cc1ccc(C(=O)COC(=O)C2CCC2)cc1	inactive
Cc1ccc(-c2csc3ncn(CC(=O)OC(C)C)c(=O)c23)cc1	inconclusive: 18.5 µM [inhibitor, single point]
CCC(=O)c1cn(CC(=O)Nc2ccccc2F)c2ccccc12	inconclusive: 18.5 µM [inhibitor, single point]
COc1cccc(N/C(=N/C(=S)Nc2ccc(C)cc2C)Nc2nc(C)cc(C)n2)c1	active: 3.29 µM
COc1cccc(NS(=O)(=O)c2ccc3c(c2)N(C(C)=O)CCS3)c1	inconclusive: 14.7 µM [inhibitor, partial curve, poor fit]
CN1OC(c2ccccc2)=C(CO)C1c1ccccc1 (configuration not stated)	inactive
O=C(O)c1c2c(nc3ccccc13)/C(=C/c1ccc(OC(F)F)cc1)CCC2	inactive
COc1cc(C(=O)N/N=C(\C)Cc2ccccc2)cc(OC)c1OC	inactive
CC1(C)CC2(CC(c3ccccc3)c3ccc(O)cc3O2)NC(=S)N1 (configuration not stated)	inconclusive: 18.5 µM [inhibitor, single point]
CCCOc1ccc(C(CC(=O)O)NC(=O)Cc2ccccc2)cc1 (configuration not stated)	inactive
CCC(C)NC(=O)C1CCN(S(=O)(=O)c2ccc3[nH]c(=O)ccc3c2)CC1 (configuration not stated)	inconclusive: 2.62 µM [inhibitor, single point]
COc1ccc(-c2ccc3c(N)c(C(=O)NC(C)C)sc3n2)cc1OC	inconclusive: 7.38 µM [inhibitor, partial curve]
Cc1ccc(N(Cc2ccc(C(=O)NCCSc3ccccn3)cc2)S(C)(=O)=O)cc1C	active: 0.738 µM
Cc1nc([N+](=O)[O-])c(N2CCN(Cc3ccccc3)CC2)n1Cc1ccccc1	active: 16.5 µM
Cc1cc(C)cc(N(CC(=O)Nc2cccc(C)c2C)S(=O)(=O)c2c(C)[nH]c(=O)[nH]c2=O)c1	inconclusive: 18.5 µM [inhibitor, single point]
O=[N+]([O-])c1cc([N+](=O)[O-])c(Oc2cc(Cl)ccc2Cl)cc1NC1CCCCCCC1	inconclusive: 18.5 µM [inhibitor, single point]

Compound	Potency
COCCN(C(=S)Nc1ccc(C(C)C)cc1)C(C)c1cccs1 (configuration not stated)	inactive
COc1cc(C(=O)OC(C)c2ccc(F)cc2)ccc1OCC(=O)N1CCOCC1 (configuration not stated)	inconclusive: 14.7 µM [inhibitor, single point]
COC(=O)C1=NN(C(=O)c2ccccc2)C(C)(O)C1 (configuration not stated)	inactive
O=C1C(=Nc2cccc(Cl)c2)CC(c2ccc(Cl)cc2)N1c1cccc(Cl)c1 (configuration not stated)	inconclusive: 2.62 µM [inhibitor, partial curve, poor fit]
CN(C)S(=O)(=O)c1ccc(N2CCCC2)c(C(=O)NCc2cccc(C(F)(F)F)c2)c1	inconclusive: 8.28 µM [inhibitor, partial curve, poor fit]
O=C(NC1CCCCC1)c1ccc(NS(=O)(=O)c2cccc3cccnc23)cc1	inactive
CCC(=O)N(Cc1ccco1)Cc1cc2cccc(C)c2n2nnnc12	inconclusive: 0.0029 µM [inhibitor, full curve, poor fit]
CC(=O)c1cc2c(cc1NC(=O)Cn1nc(C)c(C)c(C#N)c1=O)OCO2	inactive
O=C(Nc1nnc(-c2cccs2)o1)c1cccc(Oc2ccccc2)c1	inconclusive: 18.5 µM [inhibitor, single point]
CC1CCCC(n2c(=S)[nH]c3ccccc3c2=O)C1C (configuration not stated)	inconclusive: 3.29 µM [inhibitor, partial curve]
CCO[C@H]1OC(C(=O)N2CCN(Cc3ccc4c(c3)OCO4)CC2)=C[C@@H](C(C)(C)C)[C@@H]1CCCO	inconclusive: 18.5 µM [inhibitor, single point]
CC1CC(C)(C)NC(=S)N1CCCC(=O)Nc1ccc(Cl)cc1 (configuration not stated)	inconclusive: 13.1 µM [inhibitor, partial curve]
NNC(=O)CCN1CCN(Cc2ccccc2)CC1	inconclusive: 0.738 µM [inhibitor, partial curve, poor fit]
CCN(C(=O)COC(=O)C1CCN(S(=O)(=O)c2ccc(C)c(C)c2)CC1)C1CCCCC1	inactive
Cc1ccc2nc(SCC(=O)c3c[nH]c4ccccc34)[nH]c2c1	inconclusive: 4.15 µM [inhibitor, single point]
COc1ccc(-c2cc(C(=O)N3CCN(c4ncccn4)CC3)c3ccccc3n2)c(OC)c1	active: 1.85 µM
CSc1nnc(NC(=O)C23CC4CC(CC(C4)C2)C3)s1	inactive
CSc1ccc(CN2CCC(CO)(Cc3ccc(Cl)cc3)CC2)cc1	inconclusive: 8.28 µM [inhibitor, partial curve]
C=CCNC(=O)c1cn(CC)c2cc(N3CCN(C(=O)c4ccco4)CC3)c(F)cc2c1=O	inconclusive: 2.08 µM [inhibitor, partial curve]
Cc1cccc(-n2ncc3c(NCCN4CCOCC4)ncnc32)c1	inactive
COc1ccc(/C=N/NC(=O)c2c(C)nnn2-c2nonc2N)cc1OC	inactive
COc1ccccc1/C=C/C(=O)N1CCOCC1	inactive
Cc1nn(-c2cccc(C(F)(F)F)c2)c(=O)c2noc(C)c12	inactive

As entered above.
Potency with `O=C(Nc1nnc(-c2cccs2)o1)c1cccc(Oc2ccccc2)c1` reads inconclusive: 18.5 µM [inhibitor, single point]
Potency with `CCO[C@H]1OC(C(=O)N2CCN(Cc3ccc4c(c3)OCO4)CC2)=C[C@@H](C(C)(C)C)[C@@H]1CCCO` reads inconclusive: 18.5 µM [inhibitor, single point]
